Chains of the proteins cited; added tags and fusions are not shown.
UniProt A3QJX7, whole entry: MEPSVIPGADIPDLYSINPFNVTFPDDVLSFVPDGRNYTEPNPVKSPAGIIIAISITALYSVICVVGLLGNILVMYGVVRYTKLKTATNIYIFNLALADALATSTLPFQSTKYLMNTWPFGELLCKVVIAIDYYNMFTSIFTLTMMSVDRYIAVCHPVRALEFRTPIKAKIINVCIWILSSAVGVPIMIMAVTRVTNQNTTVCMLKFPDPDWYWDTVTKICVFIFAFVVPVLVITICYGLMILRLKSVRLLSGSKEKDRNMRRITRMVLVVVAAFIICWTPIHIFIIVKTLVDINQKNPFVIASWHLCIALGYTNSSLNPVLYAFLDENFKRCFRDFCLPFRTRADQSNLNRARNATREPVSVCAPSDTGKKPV
UniProt B3DH72, whole entry: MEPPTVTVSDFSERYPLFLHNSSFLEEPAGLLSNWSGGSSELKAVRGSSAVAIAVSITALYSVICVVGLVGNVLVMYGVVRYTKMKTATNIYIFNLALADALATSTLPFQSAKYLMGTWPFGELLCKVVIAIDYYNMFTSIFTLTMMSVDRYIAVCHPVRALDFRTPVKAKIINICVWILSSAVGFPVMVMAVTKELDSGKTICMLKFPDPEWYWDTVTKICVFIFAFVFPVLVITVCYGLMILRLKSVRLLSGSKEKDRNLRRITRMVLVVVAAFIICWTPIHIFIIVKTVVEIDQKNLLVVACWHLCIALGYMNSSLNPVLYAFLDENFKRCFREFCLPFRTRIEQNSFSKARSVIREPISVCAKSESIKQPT

In ChEMBL document CHEMBL3997848 (Bioorg Med Chem, 2017):

Tests used:
[1] = target: Opioid receptor homologue (Danio rerio, UniProt A3QJX7); test: Displacement of [3H]DPN from zebrafish delta 1a opioid receptor expressed in HEK293 cell membranes after 1 hr by scintillation counting method
[2] = target: Opioid receptor, delta 1b (Danio rerio, UniProt B3DH72); test: Displacement of [3H]DPN from zebrafish delta 1b opioid receptor expressed in HEK293 cell membranes after 4 hrs by scintillation counting method

`CN1CC[C@]23c4c5ccc(O)c4O[C@H]2[C@@H](O)C=C[C@H]3[C@H]1C5` [MORPHINE] was tested, and the Ki [1] was 223 nM and the Ki [2] was 1430 nM.
